According to patent US20140227292A1 (PROTHENA BIOSCIENCES, published 2014):
These are yes or no findings as the source states them, for the method shown. Some binding calls cover weakened binding; strength is not graded here. For some of these results: Where a sequence is shown, tags or fusion partners need not be part of it.

Legend:
[1] = molecular target: T1, human MCAM (melanoma cell adhesion molecule), expressed on transfected CHO cells (human) (UniProt P43121); experiment: flow cytometry on MCAM transfected cells
T1 sequence: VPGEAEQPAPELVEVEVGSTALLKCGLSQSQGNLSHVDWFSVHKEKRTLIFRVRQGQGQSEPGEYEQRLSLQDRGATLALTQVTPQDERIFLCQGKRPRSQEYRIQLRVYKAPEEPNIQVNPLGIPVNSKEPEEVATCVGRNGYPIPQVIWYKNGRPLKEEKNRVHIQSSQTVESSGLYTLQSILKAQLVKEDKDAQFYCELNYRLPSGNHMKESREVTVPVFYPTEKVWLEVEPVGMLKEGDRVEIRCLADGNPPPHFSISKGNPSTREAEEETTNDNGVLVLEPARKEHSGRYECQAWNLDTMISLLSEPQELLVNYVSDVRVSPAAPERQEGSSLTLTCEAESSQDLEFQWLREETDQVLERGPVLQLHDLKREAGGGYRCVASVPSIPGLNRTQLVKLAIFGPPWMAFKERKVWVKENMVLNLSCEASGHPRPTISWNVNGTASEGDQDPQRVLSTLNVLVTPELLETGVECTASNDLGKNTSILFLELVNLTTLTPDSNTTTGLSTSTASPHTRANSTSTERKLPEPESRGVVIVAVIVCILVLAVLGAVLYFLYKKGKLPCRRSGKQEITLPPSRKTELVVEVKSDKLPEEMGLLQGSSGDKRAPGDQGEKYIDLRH

[2] = molecular target: T2, Murine MCAM domain 1 (Ig1) with human IgG Fc tag (mouse; human) (UniProt Q8R2Y2); experiment: ForteBio Octet Red, Fc-tagged domains on anti-human IgG Fc sensors
T2 sequence (looked up): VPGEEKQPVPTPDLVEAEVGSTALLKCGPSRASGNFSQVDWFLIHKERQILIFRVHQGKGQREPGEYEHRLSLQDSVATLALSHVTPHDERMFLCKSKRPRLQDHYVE

[3] = molecular target: T3, Murine MCAM domain 1 and 2 (Ig1-2A) with human IgG Fc tag (mouse; human) (UniProt Q8R2Y2); experiment: as above
T3 sequence (looked up): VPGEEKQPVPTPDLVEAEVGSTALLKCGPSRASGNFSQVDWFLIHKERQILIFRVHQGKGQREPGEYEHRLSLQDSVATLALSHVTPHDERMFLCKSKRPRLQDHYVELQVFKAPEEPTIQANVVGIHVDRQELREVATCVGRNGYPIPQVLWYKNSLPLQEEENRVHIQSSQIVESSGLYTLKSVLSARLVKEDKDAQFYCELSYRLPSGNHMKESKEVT

[4] = molecular target: T2, Murine MCAM domain 1 (Ig1) with human IgG Fc tag (mouse; human); experiment: non-denaturing Western blot on individual Fc domains of MCAM; confirmed by ForteBio

Measured: binding

B1: anti-MCAM monoclonal antibody clone 17 (antibody, V domains shown)
VH: EVQLVESGGGLVQPGRSLKLSCAASGFTFSNYYMAWVRQAPTKGLEWVASISFEGNRNHYGDSVKGRITISRDNAKSTLYLQMTSLRPEDTATYYCARHRGYSTNFYHDVLDAWGQGALVTVSS
VL: DVQMTQSPSYLATSPGESVSISCKASKNIDTYLAWYQEKPGKTNKLLIYSGSTLQSGTPSRFSGSGSGTDFTLTIRNLESEDFAVYYCQQHNEYPLTFGSGTKLEIKR
binds: [1] | [2] | [3] | [4]
